Assay results published in publication PMC8724756.
Results are given in words; binding and its absence hold for the method and conditions named. In cells and extracts the contact can be indirect. Some entries that bind do so weakly or less than the wild type.

Protein sequences, listed by entry. Tags and fused reporters are not part of them.
UniProt Q14694: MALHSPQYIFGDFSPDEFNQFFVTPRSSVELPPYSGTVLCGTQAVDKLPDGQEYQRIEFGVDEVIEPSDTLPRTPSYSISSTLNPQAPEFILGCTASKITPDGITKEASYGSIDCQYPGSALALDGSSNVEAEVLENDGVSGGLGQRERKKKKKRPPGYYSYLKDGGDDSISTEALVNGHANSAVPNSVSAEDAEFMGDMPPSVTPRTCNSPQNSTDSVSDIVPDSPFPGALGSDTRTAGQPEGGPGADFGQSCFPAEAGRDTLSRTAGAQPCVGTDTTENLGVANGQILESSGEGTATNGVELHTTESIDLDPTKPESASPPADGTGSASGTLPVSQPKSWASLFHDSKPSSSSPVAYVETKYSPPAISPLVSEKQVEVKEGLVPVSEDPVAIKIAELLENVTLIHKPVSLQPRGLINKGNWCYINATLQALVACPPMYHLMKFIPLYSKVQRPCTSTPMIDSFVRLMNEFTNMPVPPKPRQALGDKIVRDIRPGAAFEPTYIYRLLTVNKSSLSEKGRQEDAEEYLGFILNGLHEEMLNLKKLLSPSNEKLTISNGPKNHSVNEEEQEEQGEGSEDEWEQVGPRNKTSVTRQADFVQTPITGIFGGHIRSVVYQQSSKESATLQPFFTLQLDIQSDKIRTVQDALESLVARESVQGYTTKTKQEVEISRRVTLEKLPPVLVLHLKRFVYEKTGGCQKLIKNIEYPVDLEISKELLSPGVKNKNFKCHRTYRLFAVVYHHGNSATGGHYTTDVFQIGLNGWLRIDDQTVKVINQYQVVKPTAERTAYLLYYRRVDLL
UniProt P52479: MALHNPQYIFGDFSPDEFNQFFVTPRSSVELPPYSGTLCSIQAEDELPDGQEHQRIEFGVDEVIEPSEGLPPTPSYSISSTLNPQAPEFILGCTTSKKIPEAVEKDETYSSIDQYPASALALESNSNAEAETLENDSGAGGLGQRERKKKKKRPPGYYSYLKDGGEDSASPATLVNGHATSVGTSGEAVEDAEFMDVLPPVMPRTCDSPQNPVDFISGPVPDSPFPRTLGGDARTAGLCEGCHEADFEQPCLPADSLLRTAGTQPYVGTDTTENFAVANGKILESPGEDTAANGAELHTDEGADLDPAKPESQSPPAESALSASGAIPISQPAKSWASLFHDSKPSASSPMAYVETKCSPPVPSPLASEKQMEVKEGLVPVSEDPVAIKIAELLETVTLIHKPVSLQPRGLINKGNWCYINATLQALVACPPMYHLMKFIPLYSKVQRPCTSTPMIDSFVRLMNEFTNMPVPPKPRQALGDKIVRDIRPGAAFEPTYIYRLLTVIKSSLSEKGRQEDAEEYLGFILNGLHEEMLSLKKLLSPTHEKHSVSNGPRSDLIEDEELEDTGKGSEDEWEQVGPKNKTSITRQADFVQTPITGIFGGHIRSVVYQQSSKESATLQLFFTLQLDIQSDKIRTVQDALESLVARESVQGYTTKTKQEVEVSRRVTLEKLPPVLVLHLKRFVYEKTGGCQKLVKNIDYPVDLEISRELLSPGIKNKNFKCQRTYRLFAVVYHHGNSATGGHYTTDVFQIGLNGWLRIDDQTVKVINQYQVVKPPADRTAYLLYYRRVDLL
UniProt Q9GZX7: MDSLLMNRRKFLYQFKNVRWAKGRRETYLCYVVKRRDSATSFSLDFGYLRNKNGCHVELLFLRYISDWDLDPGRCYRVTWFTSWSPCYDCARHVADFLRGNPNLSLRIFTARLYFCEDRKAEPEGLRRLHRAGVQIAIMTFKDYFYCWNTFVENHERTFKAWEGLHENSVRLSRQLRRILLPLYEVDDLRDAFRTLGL
UniProt Q9WVE0: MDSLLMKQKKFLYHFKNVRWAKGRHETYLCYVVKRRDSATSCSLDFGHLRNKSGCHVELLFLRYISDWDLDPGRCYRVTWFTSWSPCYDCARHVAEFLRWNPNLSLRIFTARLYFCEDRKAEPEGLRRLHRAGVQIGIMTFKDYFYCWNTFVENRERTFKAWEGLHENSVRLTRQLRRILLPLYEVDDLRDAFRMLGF

Key:
[1] = biological target: USP10 as used in the GST pull-down assay (UniProt Q14694); test: pull-down; GST pull-down assay; details not shown (Supplementary Fig. 1f)
[2] = biological target: USP10, endogenous in CH12 cells (mouse (endogenous in CH12)) (UniProt P52479); test: co-IP; endogenous proteins in CH12 cells stimulated with anti-CD40, IL-4, TGF-beta for 72 h; rabbit anti-USP10 or rabbit IgG with Protein G agarose beads; western blot

Row | Substance | binding [1] | binding [2]
1 | AID as used in the GST pull-down assay (from UniProt Q9GZX7 1-198) | binds | –
2 | AID, endogenous in CH12 cells (from UniProt Q9WVE0 1-198) (enzyme) | – | binds
